Values from PubChem BioAssay AID493246 (Drosophila RNAi Screening Center, 2011)
The screen tested about 21,000 reagents; this is an unselected part of those with a known target gene and a result. Over the whole deposit, 429 (2%) were called active. 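Values are raw and not normalised between plates; calls rest on per-plate z-scores that were not deposited.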 Reagents against one gene are numbered here. Names joined by + are all predicted targets of the reagent. Not stated in the record: the amount of reagent, the time to read-out.

- Purpose: 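Identify essential fly genes by loss of cell viability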 (primary screen)
- Cells: Drosophila Kc and S2R+ cells
- Knock-down reagent: long dsRNA against Drosophila genes
- Read-out: 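Cell number per well after knock-down, printed as raw plate values; calls were based on per-plate z-scores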
- Reading the numbers: Kc cell number and S2R+ cell number: higher = more cells remaining
- Call rule: 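Active when the per-plate z-score of cell number is 3 or more in the direction of fewer cells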

| target | dsRNA no. | Kc cell number, rep 1 | Kc cell number, rep 2 | S2R+ cell number, rep 1 | S2R+ cell number, rep 2 | Call |
| --- | --- | --- | --- | --- | --- | --- |
| robl62A | 1 | 1.41e6 | 1.32e6 | 1.00e6 | 1.20e6 | inactive |
| mRpL37 (mitochondrial ribosomal protein L37) | 1 | 1.27e6 | 1.29e6 | 1.09e6 | 1.21e6 | inactive |
| sfl (sulfateless) | 1 | 1.66e6 | 1.66e6 | 1.18e6 | 1.23e6 | inactive |
| sfl (sulfateless) | 2 | 1.30e6 | 1.61e6 | 1.14e6 | 1.29e6 | inactive |
| CG10254 | 1 | 1.52e6 | 1.56e6 | 1.19e6 | 1.30e6 | inactive |
| arx (asterix) | 1 | 1.55e6 | 1.56e6 | 1.31e6 | 1.31e6 | inactive |
| CG42784 | 1 | 1.31e6 | 1.33e6 | 1.31e6 | 1.29e6 | inactive |
| CG42784 | 2 | 1.53e6 | 1.62e6 | 9.25e5 | 1.02e6 | inactive |
| SkpA (SKP1-related A) | 1 | 4.95e5 | – | 8.61e5 | – | inactive |
| udt (undicht) | 1 | 1.54e6 | 1.68e6 | 1.02e6 | 1.11e6 | inactive |
| sle (slender lobes) | 1 | 1.54e6 | 1.61e6 | 1.27e6 | 1.42e6 | inactive |
| CG9008 | 1 | 1.27e6 | 1.31e6 | 1.10e6 | 1.04e6 | inactive |
| Cyp6u1 (Cytochrome P450 6u1) | 1 | 1.33e6 | 1.37e6 | 1.11e6 | 1.24e6 | inactive |
| CR18275 + CG13373 | 1 | 1.63e6 | 1.57e6 | 1.06e6 | 1.06e6 | inactive |
| Ccs (Copper chaperone for superoxide dismutase) | 1 | 1.55e6 | 1.55e6 | 1.27e6 | 1.25e6 | inactive |
| Alms1b + Alms1a | 1 | 6.18e5 | – | 8.42e5 | – | inactive |
| RpL15 (Ribosomal protein L15) | 1 | 1.01e6 | 1.10e6 | 6.57e5 | 7.94e5 | active |
| gas (gasoline) | 1 | 1.62e6 | 1.68e6 | 1.18e6 | 1.29e6 | inactive |
| bnb (bangles and beads) | 1 | 1.59e6 | 1.61e6 | 1.13e6 | 1.23e6 | inactive |
| Cyp4d21 (Cytochrome P450 4d21) | 1 | 1.19e6 | 1.27e6 | 6.19e5 | 9.35e5 | inactive |
| TM9SF4 (Transmembrane 9 superfamily protein member 4) | 1 | 1.28e6 | 1.27e6 | 1.34e6 | 1.19e6 | inactive |
| TM9SF4 (Transmembrane 9 superfamily protein member 4) | 2 | 1.54e6 | 1.64e6 | 1.20e6 | 1.30e6 | inactive |
| Eip93F (Ecdysone-induced protein 93F) | 1 | 1.69e6 | 1.53e6 | 1.06e6 | 1.02e6 | inactive |
| Eip93F (Ecdysone-induced protein 93F) | 2 | 1.32e6 | 1.42e6 | 8.86e5 | 9.53e5 | inactive |

Reagents listed so far with an active call:
| target | dsRNA no. | Kc cell number, rep 1 | Kc cell number, rep 2 | S2R+ cell number, rep 1 | S2R+ cell number, rep 2 | Call |
| --- | --- | --- | --- | --- | --- | --- |
| RpL15 (Ribosomal protein L15) | 1 | 1.01e6 | 1.10e6 | 6.57e5 | 7.94e5 | active |
